# According to the supplement of paper PMC3334620:
# The full ranking holds about 33,000 sequences; the median of “E-score (-0.5 to 0.5)” is about -8e-05, and the highest 2% start at about 0.23. This is one part of the list.
# Molecular target: T1, Nrg2 (UniProt P38082)
# T1 sequence: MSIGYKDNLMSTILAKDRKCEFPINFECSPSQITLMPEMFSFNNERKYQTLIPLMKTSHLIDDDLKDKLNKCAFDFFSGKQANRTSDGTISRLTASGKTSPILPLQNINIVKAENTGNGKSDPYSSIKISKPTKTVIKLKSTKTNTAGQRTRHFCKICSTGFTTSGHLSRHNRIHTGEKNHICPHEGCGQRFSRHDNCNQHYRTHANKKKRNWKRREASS
# Assay: PBM E-score (8-mer binding enrichment) (E-score (-0.5 to 0.5)); higher = stronger / more preferred TF binding
# Conditions: protein concentration: 100 nM; construct: GST-full length
# In short: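 E-scores (a modified Wilcoxon-Mann-Whitney statistic) were assigned by the Universal PBM Analysis Suite to every ungapped eight-base word pooled with its reverse complement. The input came from universal all-10-mer Agilent arrays made double-stranded by primer extension and probed with GST-tagged yeast transcription factors at about 100-200 nM. Fluorescent anti-GST detected bound protein, and masliner normalised the scans.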
row,Sequence,PBM E-score
1,ACCTTTAG,-0.115
2,CCGTGTTA,-0.0728
3,GACAACTC,0.0611
4,CCATGGTC,-0.0857
5,ACCCCCTC,-0.327
6,ATGCAGAG,-0.127
7,ATGGCGAA,0.206
8,GGCTGAGA,-0.0527
9,CGTCCTCA,-0.109
10,AAAAACAA,0.149
11,GTACCGAA,-0.087
12,ACCGTACC,-0.0813
13,ACGAATTC,0.0229
14,CGCACCAA,0.00802
15,GGGATCGA,-0.00212
16,CTGGGAGA,0.0489
17,CAGCCCCC,-0.351
18,AGCTGGGG,-0.114
19,CCCCCGGC,-0.34
20,GATCCCGA,0.0706
21,ATATGGAG,0.147
22,AGGTCCCG,0.066
23,GTAAGGCA,-0.0496
24,GTCCATCA,-0.0118
25,CACGGCTG,-0.129

row,Sequence,PBM E-score
1,AGTCAATG,-0.0552
2,CTAAATAG,0.0318
3,GATCGGGA,-0.213
4,CCTGTGTC,-0.0504
5,AGGGGAAG,-0.114
6,CGTAGTAC,-0.0916
7,AGACACTG,0.0572
8,ATCAGCGC,0.0517
9,GCCTCCGA,-0.211
10,CCGCTCAA,0.0189
11,CTGCATCA,0.0772
12,CCTACTTC,0.00141
13,AAAGGGGT,0.16
14,AACAACGG,0.0609
15,ATATACAC,0.081
16,CATCGCGA,0.127
17,CGGCACCC,-0.0943
18,CCGGTCAA,-0.0451
19,CAAGACTC,-0.0308
20,AGCTCAAA,0.0621
21,ATAAGGCG,0.0285
22,GGAGGAAC,-0.218
23,CGGTCAAA,0.0235
24,AGGCTTGA,0.00845
25,ATCTCAAG,0.238

row,Sequence,PBM E-score
1,CGACGTGA,-0.0428
2,ATAGTTGC,0.19
3,CAGGTGGC,-0.146
4,CGACCTCC,-0.0729
5,TACAGAAA,0.222
6,CGTAGTCA,-0.095
7,ACCAGCCG,-0.148
8,ACTTGAAT,0.0658
9,GAGGATAC,-0.195
10,CCAGTTCA,0.00629
11,AATCATTA,0.0429
12,CCTCAGTA,-0.0944
13,GAATATAA,0.12
14,CTCGGGTC,0.157
15,AGGAGGCC,-0.305
16,CGGTAATA,0.0466
17,GATACTAC,0.13
18,ATAGCTTC,-0.176
19,AGTAACCC,0.0575
20,TTACGAAA,0.0467
21,AAGCCATT,-0.119
22,AACTATTG,0.171
23,CCCAAAGC,-0.151
24,AGTGACAA,0.0848
25,CCTCTCCG,-0.294

# Shown with bars between the fields: part of the list above.
row | Sequence | PBM E-score
9 | GAGGATAC | -0.195
10 | CCAGTTCA | 0.00629
11 | AATCATTA | 0.0429
12 | CCTCAGTA | -0.0944
13 | GAATATAA | 0.12
14 | CTCGGGTC | 0.157
15 | AGGAGGCC | -0.305

# Given as tab-separated lines: part of the list above
row	Sequence	PBM E-score
15	AGGAGGCC	-0.305
16	CGGTAATA	0.0466
17	GATACTAC	0.13
18	ATAGCTTC	-0.176

# The listing continues.

row,Sequence,PBM E-score
1,TCACGACA,-0.0775
2,ACGACTCG,-0.0701
3,AGTAGGCA,0.0959
4,AGATGAGG,-0.0818
5,GAAACCTC,-0.0382
6,AGGAGTGC,-0.111
7,ACAGAAAC,0.227
8,CGTATCTA,0.0447
9,CAGGTAAC,-0.131
10,CGATATCG,0.0284
11,CCCTCAAC,-0.135
12,CCATGTAG,0.118
13,AGCTCTCG,-0.129
14,ATCTGACA,-0.108
15,AATGCCCT,-0.11
16,AAGAAAGA,0.134
17,ACGGTCGG,0.00627
18,TGATCGCA,-0.156
19,GGTGCCGA,0.0518
20,CTAGAAAC,-0.111
21,GCAGATCC,0.034
22,CCACATTC,0.0344
23,AGGGGGCC,-0.189
24,CATTAGCA,-0.0698
25,CTTTCCGC,0.00442

row,Sequence,PBM E-score
1,AGGTGACT,-0.0863
2,TGACCTAA,0.128
3,CCAGTCGG,-0.166
4,GATAGACA,-0.0372
5,ATCCTGTG,-0.11
6,ATTAGTAC,0.14
7,AAGTATGG,0.121
8,AATAATTA,0.286
9,ATGGGCGG,0.00956
10,CTAAGATC,0.0543
11,GCGTCCGA,-0.0847
12,GGTAGGTA,-0.0984
13,CCCAATAG,0.00098
14,AGCGTTTC,-0.195
15,AGCCTTTG,-0.186
16,AACGGAAT,0.136
17,ACAGCCGA,-0.0907
18,GAATGTAA,0.159
19,CGCGCTAA,0.259
20,CGAGCACA,0.155
21,GCCCGGCC,-0.291
22,ATTCCAAC,0.0418
23,AGCCGGAA,0.225
24,GCCAACCA,-0.122
25,CGTGCGTA,0.0283

row,Sequence,PBM E-score
1,AGATTAGG,-0.055
2,GGCGGATA,0.0265
3,AAACATTC,-0.0492
4,CGCCTTCC,-0.297
5,CGACGACC,-0.0281
6,AAGGTTAA,-0.0201
7,ACGTAGCA,0.0226
8,CTGTCAGA,0.11
9,CCTCGACA,-0.0179
10,CTACAGTA,-0.0466
11,ATCCGTAG,-0.219
12,TAAGATGA,0.025
13,CTGCAATC,0.0966
14,GACAATAC,0.232
15,AGAACGGA,-0.0712
16,AGTCCGAC,-0.138
17,ATGGAGAA,0.0935
18,GGAAATAC,7e-05
19,AGCGTTAC,-0.146
20,CCCCAGAC,-0.226
21,ACGCAACG,0.0759
22,ATATAGAC,-0.0547
23,CACCGTAA,-0.0346
24,CACCTCGA,0.256
25,ACTCAAAA,0.161

row,Sequence,PBM E-score
1,AGTCGTTC,-0.219
2,AGATGGAT,-0.00928
3,ATTAGAGG,-0.169
4,CCTGCGCC,-0.00969
5,ATTCTTAC,0.0813
6,CCCAGGTC,-0.299
7,TCACTGAA,0.135
8,AAAACTCG,0.0385
9,CATCTCTC,0.148
10,AAAACTGA,-0.0495
11,AGTCTGAC,0.0109
12,GATGGCAC,-0.111
13,CGCGACCA,0.23
14,GGTGGGTA,0.0177
15,ATCCTTCG,-0.0731
16,CACGATTA,0.0388
17,CGTAGCGA,0.0115
18,ACTCGAAT,-0.0643
19,CAGCTTCA,-0.166
20,TCAGCGAA,-0.0216
21,CACACGAG,-0.0946
22,ATTTTGTA,0.0995
23,ATTCTCCG,0.107
24,AAACACGA,0.0493
25,AGATTATA,0.0559

row,Sequence,PBM E-score
1,CCGCAAGG,0.117
2,ATTGCGGA,0.119
3,GAGTCCAC,-0.0518
4,CTAACGCA,-0.025
5,AAGACGCT,-0.178
6,GCGAGGCA,0.148
7,TATGAACA,0.0271
8,AAATGGAA,0.0261
9,ATTTAATA,0.247
10,GCGCTACC,-0.139
11,AAGAAGCA,-0.0436
12,TTATCAAA,0.0866
13,CTAATCGC,0.14
14,CGAGAAAA,-0.058
15,CTCAGACC,0.0297
16,AGTAATAT,0.137
17,CAGCCACC,-0.125
18,GTGAGGTA,-0.165
19,CAGGGCTC,0.0594
20,CACAAAAG,0.151
21,CCTACGAC,-0.0786
22,CGCTGAGC,0.0528
23,TCGTAAAA,-0.00421
24,CCAACCAA,-0.0266
25,ACACGGCC,-0.0946

row,Sequence,PBM E-score
1,AGGCGGTG,-0.143
2,CAGCCCTC,-0.262
3,CCTCTGCA,-0.0772
4,ACTAGCCG,-0.0904
5,TCATGCCA,0.0156
6,CTATGGCA,-0.0101
7,CTCTCCAA,0.0112
8,CCGTTGAG,-0.141
9,ATGGCACA,0.011
10,TCTTTTAA,-0.0015
11,ACCGTAAG,-0.0598
12,CCGCGGGA,0.284
13,ATGGGCTA,0.0965
14,CCGGAGGA,-0.344
15,ACTAACTA,0.06
16,CAAAAGTA,0.0162
17,AAGTCTCG,-0.168
18,GGTTTTTA,-0.00507
19,AGTTGGGC,0.128

# Copied from above for reference:
row,Sequence,PBM E-score
11,ACCGTAAG,-0.0598
12,CCGCGGGA,0.284
